# PubChem BioAssay AID1671195 | Yale University, 2021
# Purpose: 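Regulators of LDL receptor activity judged by labelled LDL uptake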 (primary screen)
# System: human Huh7 hepatoma cells
# Knock-down reagent: siRNA pool against human genes, 18 nM
# Duration: about 2 to 2.5 days of knockdown, then 8 h LDL uptake
# Conditions: DiI-labelled LDL at 30 µg/ml for 8 h, in lipoprotein-deficient serum medium
# Detection: 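Per-cell DiI-LDL intensity by automated imaging; well means scaled to the plate median and given as a robust z-score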
# Direction: robust z-score: higher = more LDL uptake after knockdown
# Hit rule: 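Active when two or more replicates show a robust z-score above 2 or below -2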
# Shown is an unselected part of about 22,000 deposited reagents. Of all reagents, about 1,510 (6.9%) got an active call. 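Active includes knockdowns raising or lowering LDL uptake; positive z-scores mean more uptake, negative mean less.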 Entries without a mark were called inactive. Reagents against one gene are numbered here.
gene,pool no.,"robust z-score, replicate 1","robust z-score, replicate 2","robust z-score, replicate 3"
LOC390349 (retired record),1,-1.36,-1.35,-1.29
FAM81A,1,0.476,0.023,1.39
IL12A,1,-0.45,-0.349,-0.971
LOC440407 (retired record),1,-0.49,-0.59,-1.01
SGSM2,1,-0.0952,0.458,-1.4
EMP3,1,0.18,1.1,1.09
SUGP2,1,1.13,0.756,0.829
LINC02181,1,1.71,2.32,1.45
RALA,1,1.38,0.573,0.807
RPL32P36,1,-1.77,-1.67,-1.62
RIOK3,1,-0.473,-0.0155,0.318
CASP6,1,-0.0664,0.96,-0.301
HES2,1,-0.559,-0.565,-0.921
NDC1,1,-0.485,0.73,-0.728
USP17L7,1,-0.33,0.21,0.684
ZNF221,1,-0.052,0.327,0.491
KRT33B,1,2.35,-0.0103,1.64
LGI1,1,-0.0837,1.61,0.156
SETD7,1,0.631,0.763,1.32
LOC391776 (retired record),1,-0.305,-0.338,0.279
LEUTX,1,1.48,2.28,1.78
ADPRHL1,1,0.568,0.828,0.65
ADPRHL1,2,0.319,0.522,0.961
PCMT1,1,-1.58,-0.957,-1.29
ANKRD16,1,0.772,-1.01,-0.0848
DPH6,1,-0.0986,0.168,0.429
CFL1,1,-1.01,-1.27,-1.29
ASB11,1,1.78,0.661,1.95
LOC389139 (retired record),1,-1.09,-0.61,-0.811
LOC441169 (retired record),1,0.251,-0.094,-0.284
PSPH,1,-0.194,-0.0215,-0.495
PCBD1,1,-1.27,-1.06,-0.976
DROSHA,1,-0.856,-1.33,-0.814
LOC440464 (retired record),1,0.881,0.799,1.2
HERC2,1,-1.54,-1.57,-1.54
RFC2,1,1.97,1.7,1.04
AIFM2,1,1.79,1.19,1.72
PRMT1,1,0.459,-0.453,0.49
ADGRG5,1,1.31,0.348,1.12
HOXC13,1,2.81,0.886,1.35
LOC440534 (retired record),1,0.451,-0.286,0.102
SETD6,1,-0.749,-1.14,-1.18
DDX6,1,0.523 (active),2.52,3.66
GAL3ST3,1,-2.66 (active),-2.68,-2.67
LINC00467,1,-0.107,1.12,-0.226
CCDC185,1,-0.787,-0.621,-1.21

5 of these entries in another layout.
SETD7 — robust z-score, replicate 1: 0.631; robust z-score, replicate 2: 0.763; robust z-score, replicate 3: 1.32
LOC391776 (retired record) — robust z-score, replicate 1: -0.305; robust z-score, replicate 2: -0.338; robust z-score, replicate 3: 0.279
LEUTX — robust z-score, replicate 1: 1.48; robust z-score, replicate 2: 2.28; robust z-score, replicate 3: 1.78
ADPRHL1 #1 — robust z-score, replicate 1: 0.568; robust z-score, replicate 2: 0.828; robust z-score, replicate 3: 0.65
ADPRHL1 #2 — robust z-score, replicate 1: 0.319; robust z-score, replicate 2: 0.522; robust z-score, replicate 3: 0.961
